Measured values from patent US6117975A, “Melanocortin receptor polypeptides MC-3, MC-4, and MC-5” (The Regents of the University of Michigan, priority 1996, dated 2000).
“Also recorded” adds a separate entry of the source. Part of at least one peptide drawing is inferred or uncertain, most often the ends.

Sequences of proteins named here, by UniProt entry; tags and fusion partners are left off. A change or cut given only in a name is not applied to a line headed by its entry.
UniProt P41149: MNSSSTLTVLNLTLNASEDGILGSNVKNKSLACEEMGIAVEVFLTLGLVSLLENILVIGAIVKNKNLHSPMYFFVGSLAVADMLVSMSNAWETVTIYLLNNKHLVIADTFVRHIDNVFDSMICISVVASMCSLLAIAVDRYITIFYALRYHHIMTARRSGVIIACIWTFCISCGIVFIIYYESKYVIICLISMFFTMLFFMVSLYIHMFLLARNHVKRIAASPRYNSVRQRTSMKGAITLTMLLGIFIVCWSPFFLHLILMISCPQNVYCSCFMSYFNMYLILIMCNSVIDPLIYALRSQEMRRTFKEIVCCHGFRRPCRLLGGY
UniProt P41968: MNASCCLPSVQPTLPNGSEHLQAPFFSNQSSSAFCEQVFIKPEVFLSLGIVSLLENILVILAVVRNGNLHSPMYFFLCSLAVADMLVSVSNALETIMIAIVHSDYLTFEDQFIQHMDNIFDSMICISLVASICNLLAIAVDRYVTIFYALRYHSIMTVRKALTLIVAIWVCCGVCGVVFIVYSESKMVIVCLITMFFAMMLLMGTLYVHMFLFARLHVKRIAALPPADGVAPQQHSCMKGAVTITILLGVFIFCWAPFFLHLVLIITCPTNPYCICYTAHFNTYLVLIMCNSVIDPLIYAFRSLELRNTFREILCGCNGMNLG
UniProt P32245, whole entry: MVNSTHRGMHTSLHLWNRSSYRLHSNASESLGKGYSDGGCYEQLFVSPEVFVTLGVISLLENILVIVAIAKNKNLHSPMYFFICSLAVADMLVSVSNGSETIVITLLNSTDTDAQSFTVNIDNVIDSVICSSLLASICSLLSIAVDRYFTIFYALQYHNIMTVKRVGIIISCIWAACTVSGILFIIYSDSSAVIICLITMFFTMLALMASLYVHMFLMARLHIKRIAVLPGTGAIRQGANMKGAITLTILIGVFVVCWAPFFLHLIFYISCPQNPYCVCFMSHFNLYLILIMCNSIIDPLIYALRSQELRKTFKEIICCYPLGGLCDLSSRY

What was measured:
Type in all cases: cell-based
mMC5 receptor = target: T1, mMC5 receptor (Mus musculus, UniProt P41149); assay: cAMP generation in L-cells transfected with the mMC5 receptor
T1 construct: expressed in transfected cells
Source text: (§1) Receptor Expression. […] The sequences were subsequently checked by nucleotide sequencing to insure that no sequence errors were induced by PCR. L-cells (a mouse fibroblast-like cell line) were transfected using a calcium phosphate co-precipitation method as described in Chen, C. A. et al. Bio/Techniques 6:632-638 (1988). Permanently transfected L-cells were selected by resistance to the neomysin analogue G418, and receptor mRNA expression was checked by Northern blot analysis. […] COS-1 cells which were transiently transfected with the CMVneo/MC4R gene construct by lipofection as described in Feigner, P. L. et al., PNAS (USA) 84:7413-7417 using the Lipofectin Reagent (Life Technologies Inc.) were split into 12-well plates after 24 hr and assayed 36 hr post-transfection.
(§2) cAMP Assays. For these assays a cAMP assay kit (TRK 432, Amersham Corp.) was employed. […] The cells were maintained in Dulbecco's modified Eagle's medium (GIBCO) containing 4.5 g/100 ml glucose, 10% fetal calf serum, 100 units/ml penicillin and streptomycin, 1 mM sodium pyruvate, and 1 mg/ml Geneticin. […] An aliquot (0.5 ml) of Earle's balanced salt solution was placed into each well along with 5 μl of 2×10^-2 M isobutylmethylxanthine. Varying concentrations of agonist were added, and the cells were incubated to 30 min at 37° C. Ice-cold 30% trichloracetic acid (500 μl/well) was added to stop the reaction and precipitate cellular protein. The cells were scraped and transferred to 16×150-mm glass tubes, then placed on ice for 30 min. The precipitate was then centrifuged for 10 min at 1,900×g, and the supernatant was ether extracted, lyophilized, and resuspended in 50 mM Tris, 2 mM EDTA (pH 7.5). cAMP content was then measured by a competitive binding assay according to the assay instructions.

MC3 receptor [1] = target: T2, MC3 receptor (Homo sapiens, UniProt P41968); assay: intracellular cAMP content in Hepa cells transfected with the MC3 receptor; set-up: these were utilized to obtain full-length genomic clones by screening a genomic library; expressed in transfected cells; CMVneo vector
MC3 receptor [2] = target: T2, MC3 receptor; assay: cAMP generation in L-cells transfected with the MC3 receptor; set-up: these were utilized to obtain full-length genomic clones by screening a genomic library; expressed in transfected cells; CMVneo vector
Source text: as §1
cAMP Assays. For these assays a cAMP assay kit (TRK 432, Amersham Corp.) was employed. […] The cells were maintained in Dulbecco's modified Eagle's medium (GIBCO) containing 4.5 g/100 ml glucose, 10% fetal calf serum, 100 units/ml penicillin and streptomycin, 1 mM sodium pyruvate, and 1 mg/ml Geneticin. […] The precipitate was then centrifuged for 10 min at 1,900×g, and the supernatant was ether extracted, lyophilized, and resuspended in 50 mM Tris, 2 mM EDTA (pH 7.5). cAMP content was then measured by a competitive binding assay according to the assay instructions.

MC4 receptor = target: T3, MC4 receptor (Homo sapiens, UniProt P32245); assay: intracellular cAMP content in Hepa cells transfected with the MC4 receptor
T3 construct: expressed in transfected cells; host or cells: COS-1 (transient, lipofection); Hepa rat hepatoma; CMVneo vector

MC1 receptor = target: T4, MC1 receptor (Homo sapiens, UniProt Q01726, R163Q/S90T); assay: cAMP generation in L-cells transfected with the MC1 receptor
T4 construct: expressed in transfected cells
T4 sequence (Q01726 1-317 S90T/R163Q): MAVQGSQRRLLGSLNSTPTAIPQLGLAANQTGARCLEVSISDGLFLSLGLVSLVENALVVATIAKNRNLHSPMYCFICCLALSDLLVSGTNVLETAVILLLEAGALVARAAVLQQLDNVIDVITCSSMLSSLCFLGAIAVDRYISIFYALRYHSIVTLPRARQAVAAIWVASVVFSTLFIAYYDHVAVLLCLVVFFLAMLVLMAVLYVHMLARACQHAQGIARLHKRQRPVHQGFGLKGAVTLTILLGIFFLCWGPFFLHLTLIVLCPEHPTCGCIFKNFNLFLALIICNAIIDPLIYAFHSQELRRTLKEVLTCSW
Source text: as §1, §2

SMILES	cAMP response (in words) (mMC5 receptor)	cAMP response (in words) (MC3 receptor [1])	order of potency of the truncated peptides (MC3 receptor [1]; cAMP)	cAMP response (in words) (MC3 receptor [2])	cAMP response (in words) (MC4 receptor)	cAMP response (in words) (MC1 receptor)	orders of magnitude lower in potency than α-MSH (mMC5 receptor; cAMP)	potency, fold lower than that of ACTH and α-MSH (MC1 receptor; cAMP) [fold]
CSCC[C@H](N)C(=O)N[C@@H](CCC(=O)O)C(=O)N[C@@H](Cc1c[nH]cn1)C(=O)N[C@@H](Cc1ccccc1)C(=O)N[C@@H](CCCNC(=N)N)C(=O)N[C@@H](Cc1c[nH]c2ccccc12)C(=O)NCC(=O)O [ACTH(4-10)]	essentially no biological activity	nearly the same	ACTH (1-13)>>ACTH (1-10) which is roughly equivalent to ACTH (4-13)>ACTH(4-10)	full efficacy	equal and lesser potency	neither ACTH(1-10) nor ACTH(4-10) were able to induce a full response	–	–
CSCC[C@H](NC(=O)[C@@H](NC(=O)[C@@H](N)Cc1ccc(O)cc1)C(C)C)C(=O)NCC(=O)N[C@@H](Cc1c[nH]cn1)C(=O)N[C@@H](Cc1ccccc1)C(=O)N[C@@H](CCCNC(=N)N)C(=O)N[C@@H](Cc1c[nH]c2ccccc12)C(=O)N[C@@H](CC(=O)O)C(=O)N[C@@H](CCCNC(=N)N)C(=O)N1CCC[C@H]1C(=O)NCC(=O)O [Pro^11 y-MSH]	–	no significant effect on the activation of MC3 receptor; also recorded: equipotent	–	–	profoundly increased the activity of y-MSH	–	–	–
CSCC[C@H](NC(=O)[C@H](CCCNC(=N)N)NC(=O)[C@H](Cc1ccc(O)cc1)NC(=O)[C@@H]1CCCN1C(=O)CNC(=O)[C@H](CCC(=O)O)NC(=O)[C@H](CC(=O)O)NC(=O)[C@H](CCCCN)NC(=O)[C@H](CCCCN)NC(=O)[C@H](CCC(=O)O)NC(=O)[C@H](C)N)C(=O)N[C@@H](CCC(=O)O)C(=O)N[C@@H](Cc1c[nH]cn1)C(=O)N[C@@H](Cc1ccccc1)C(=O)N[C@@H](CCCNC(=N)N)C(=O)N[C@@H](Cc1c[nH]c2ccccc12)C(=O)NCC(=O)N[C@@H](CO)C(=O)N1CCC[C@H]1C(=O)N1CCC[C@H]1C(=O)N[C@@H](CCCCN)C(=O)N[C@@H](CC(=O)O)C(=O)O [β-MSH]	full agonists	–	–	responds to these two peptides as well as it does to ACTH and α-MSH	–	fully efficacious	one	10
